# Assay results taken from PubChem BioAssay AID540256 (National Center for Advancing Translational Sciences (NCATS), 2011).
# Among all 300,000 compounds or so, about 3,700 (1.2%) were called active. The inconclusive results got no clear call from the source; some entries with a clear call stand among them for comparison. Calls come from the whole dose curve; tested in HEK293 cells. Where the call is inconclusive, the potency comes from a doubtful curve fit.
# Test: qHTS for Inhibitors of binding or entry into cells for Lassa Virus; note: nearly all actives have a fitted effect of over 50% in size
# Conditions: Lassa virus pseudotype entry inhibition, cell reporter; series mostly up to 37.9 µM
# Potency is the fitted concentration of half-maximal effect.
row,Structure (SMILES),Potency
1,Cc1ccc(NS(=O)(=O)c2ccc(OCC(=O)Nc3cccc([N+](=O)[O-])c3)c(C)c2)cc1,"inconclusive: 29.1 µM [inhibitor, single point]"
2,CC(C)Oc1ccc(C(=O)/C(=C\c2cccs2)c2nc3ccccc3o2)cc1,"inconclusive: 11.2 µM [inhibitor, partial curve, poor fit]"
3,CC(C)CC(c1nnnn1Cc1ccco1)N1CCN(c2cccc(Cl)c2)CC1 (configuration not stated),"inconclusive: 35.5 µM [inhibitor, single point]"
4,O=S(=O)(c1ccccc1)N1CCN(c2ncnc3scc(-c4ccccc4)c23)CC1,"inconclusive: 1.26 µM [inhibitor, partial curve, poor fit]"
5,NC(=O)CS(=O)(=O)c1nc2ccccc2n1CC(=O)N1CCCCC1,"inconclusive: 18.3 µM [inhibitor, single point]"
6,Cn1c(Nc2cccc(Cl)c2)nc2ccccc21,"inconclusive: 35.5 µM [inhibitor, single point]"
7,Cc1ccc(C(=O)NC(NC(=O)c2ccc(C)cc2)c2cccc([N+](=O)[O-])c2)cc1,inactive
8,CC1(C)Cc2c(sc3ncn(N)c(=N)c23)CO1,inactive
9,Cc1cccc(C(=O)N(c2ccccn2)C(C)c2ccco2)c1 (configuration not stated),inactive
10,COC(=O)c1cc(Nc2cc(C)nc3ncnn23)cc(C(=O)OC)c1,inactive
11,Cc1ccc(COc2ccc(/C=N/NC(=O)c3ccc(CN4CCOCC4)cc3)cc2)cc1,"inconclusive: 7.08 µM [inhibitor, full curve, poor fit]"
12,Cc1cnc(C(=O)NC2CC(C)(C)Cc3c2cnn3-c2ccccc2)cn1 (configuration not stated),"inconclusive: 35.5 µM [inhibitor, single point]"
13,O=C(Nc1cc(-c2ccccc2)cs1)c1ccco1,"inconclusive: 35.5 µM [inhibitor, single point]"
14,COc1ccc(C2c3c(-c4ccccc4O)n[nH]c3C(=O)N2Cc2ccco2)cc1 (configuration not stated),active: 0.58 µM
15,COc1cccc(N(C(=O)c2csnn2)C(C(=O)NC2CCCC2)c2ccccc2)c1 (configuration not stated),"inconclusive: 3.55 µM [inhibitor, single point]"
16,CCN1CN(Cc2ccco2)CNC1=S,"inconclusive: 5.62 µM [inhibitor, single point]"
17,Cc1ccc(S(=O)(=O)N(CCCO)CC(O)CON=C2c3ccccc3-c3ccccc32)cc1 (configuration not stated),"inconclusive: 20 µM [inhibitor, single point]"
18,CN(C)CC(O)COC(c1ccccc1)c1ccccc1 (configuration not stated),inactive
19,NS(=O)(=O)c1ccc(NC(=S)Nc2cc(Cl)c(Cl)cc2Cl)cc1,inactive
20,O=C(c1ccc2ccccc2c1)C1CCCN(C(=O)c2cccnc2)C1 (configuration not stated),inactive
21,O=C1/C(=C/c2ccccc2)CCc2ccc(Cl)nc21,"inconclusive: 35.5 µM [inhibitor, single point]"
22,CC(C)(C)n1nnnc1CN(Cc1ccco1)Cc1cc2cc3c(cc2[nH]c1=O)OCO3,inactive
23,COc1cc(NC(=O)CSCc2cnn(-c3ccccc3)c2-n2cccc2)cc(OC)c1,"inconclusive: 35.5 µM [inhibitor, single point]"
24,COc1cc(CN2CCC(n3nccc3NC(=O)CCCc3ccccc3)CC2)ccc1O,"inconclusive: 35.5 µM [activator, single point]"

# An excerpt of these results, with tabs:
row	Structure (SMILES)	Potency
19	NS(=O)(=O)c1ccc(NC(=S)Nc2cc(Cl)c(Cl)cc2Cl)cc1	inactive
20	O=C(c1ccc2ccccc2c1)C1CCCN(C(=O)c2cccnc2)C1 (configuration not stated)	inactive
21	O=C1/C(=C/c2ccccc2)CCc2ccc(Cl)nc21	inconclusive: 35.5 µM [inhibitor, single point]

# Additional results

row,Structure (SMILES),Potency
1,CCc1ccc(OCC(=O)N/N=C(\C)c2ccc3c(c2)OCCO3)cc1,"inconclusive: 18.4 µM [inhibitor, single point]"
2,COC(=O)c1ccc(C(=O)OC)c(NC(=S)N2CCN(c3cc(Cl)ccc3C)CC2)c1,active: 4.47 µM
3,O=C1NC2(CCCCC2)C(=O)N1Cc1cccc(C(F)(F)F)c1,inactive
4,O=C(/C=C\Nc1ccc(S(=O)(=O)Nc2ncccn2)cc1)c1ccccc1,inactive
5,Cc1c(NC(=O)c2ccc(CN3CCc4ccccc4C3)cc2)c(=O)n(-c2ccccc2)n1C,"inconclusive: 9.2 µM [inhibitor, partial curve, poor fit]"
6,CCc1nc(SCC(=O)N2c3ccccc3CC2C)c2c(C)c(C)sc2n1 (configuration not stated),active: 1.46 µM
7,CC(C)(C)C1CCC(=NNC(=O)C(=O)NCc2ccco2)CC1 (configuration not stated),"inconclusive: 3.98 µM [inhibitor, single point]"
8,COc1cc(Cn2c(-c3ccc(O)c(OC)c3)nc3ccccc32)ccc1O,"inconclusive: 11.2 µM [inhibitor, partial curve, poor fit]"
9,Cc1ccc(NS(=O)(=O)c2cccc(C(=O)Nc3cc(C)on3)c2)cc1,"inconclusive: 29.1 µM [inhibitor, single point]"
10,CCC(=O)Nc1nnc(S(=O)(=O)N(C)Cc2ccccc2)s1,inactive
11,O=C(NCCc1c[nH]c2ccccc12)C1Cc2ccccc2CN1C(=O)c1ccco1 (configuration not stated),"inconclusive: 7.3 µM [inhibitor, full curve, poor fit]"
12,COc1ccccc1CNC(=O)c1ccc(C)c(-n2cnc3cccnc32)c1,inactive
13,CC(C)n1cnc2cc(NCc3ccco3)ccc21,inactive
14,CCc1nnc2c3ccccc3nc(N3CCN(c4ccc(C)cc4C)CC3)n12,"inconclusive: 10 µM [inhibitor, partial curve, poor fit]"
15,O=C(NCCc1csc(-c2cccnc2)n1)c1cccc(C(F)(F)F)c1,inactive
16,CCC(C)n1ncn(-c2ccc(N3CCN(c4ccc(O)cc4)CC3)cc2)c1=O (configuration not stated),"inconclusive: 1.26 µM [inhibitor, partial curve, poor fit]"
17,O=C(COc1cccc(NC(=O)c2ccccc2)c1)c1ccccc1,inactive
18,CO/S(=N\S(=O)(=O)c1ccc(Cl)cc1)c1ccc([N+](=O)[O-])cc1 (configuration not stated),"inconclusive: 29.1 µM [activator, single point]"
19,Cc1ccccc1NC(=O)/C(C#N)=C/c1ccsc1,inactive
20,COc1cccc(-c2nc3c(c(=O)[nH]c(=O)n3Cc3ccccc3)n2CCO)c1OC(F)F,"inconclusive: 10 µM [inhibitor, partial curve]"
21,O=C(CNC(=O)c1cccc(Br)c1)N/N=C/c1ccc2c(c1)OCO2,inactive
22,CSc1ccc(CNC(=O)CCn2ccc3cc(S(=O)(=O)N4CCCC4)ccc32)cc1,"inconclusive: 11.2 µM [inhibitor, partial curve, poor fit]"
23,Cc1nn(C)c(C)c1S(=O)(=O)NCCc1ccc(Cl)cc1,"inconclusive: 11.2 µM [activator, partial curve, poor fit]"
24,Brc1cc2c(cc1COc1ccc(-c3nn[nH]n3)cc1)OCO2,inactive

row,Structure (SMILES),Potency
1,COC(=O)CCC(=O)Nc1ccccc1C(N)=O,"inconclusive: 20.6 µM [activator, single point]"
2,N#C/C(=C\c1c(F)cccc1Cl)c1nn(-c2ccccc2)c(-n2cccc2)c1C#N,"inconclusive: 35.5 µM [inhibitor, single point]"
3,COC(=O)c1cc2occc2n1Cc1nc(-c2ccccc2Cl)oc1C,inactive
4,CCCCN1CCc2c1nc1ccc(Br)cc1c2N,inactive
5,CCOC(=O)c1cc(-c2ccccc2)n(CCC(=O)N2CCN(c3ccc(OC)cc3)CC2)c1C,"inconclusive: 11.6 µM [inhibitor, partial curve, poor fit]"
6,CC(C)CC(=O)NC(=S)Nc1nc(-c2cccc3ccccc23)cs1,"inconclusive: 7.94 µM [inhibitor, partial curve, poor fit]"
7,COc1ccc(-c2cc(N3CCCC3)n3ncnc3n2)cc1,inactive
8,COc1ccc(C(=O)NC(=S)N2CCCC2)cc1,"inconclusive: 1 µM [activator, full curve, poor fit]"
9,COc1ccc(NC(=O)C2CCCN(c3ncccn3)C2)cc1 (configuration not stated),"inconclusive: 2.82 µM [inhibitor, single point]"
10,CN(CCOc1ccc(Cl)cc1)C(=O)c1ccc(S(=O)(=O)N2CCOCC2)cc1,"inconclusive: 35.5 µM [inhibitor, partial curve, poor fit]"
11,CC1=CC(C)(C)N(C(=O)c2ccccc2)c2ccccc21,inactive
12,COc1ccccc1N1CCN(CCCCN2C(=O)C3CCCCN3C2=O)CC1 (configuration not stated),inactive
13,Cc1ccc(-c2csc(C3=C(O)CN(NC(=O)c4ccc([N+](=O)[O-])cc4)C3=N)n2)cc1,"inconclusive: 25.1 µM [activator, single point]"
14,COc1cccc(CN2CCCC(C(=O)c3ccc4c(c3)OCO4)C2)c1OC (configuration not stated),inactive
15,CCc1ccc(C(=O)N2CCN(c3ccc(NC(=O)c4cccnc4)cc3)CC2)cc1,"inconclusive: 1.26 µM [activator, single point]"
16,COCOCCn1cc(CN2CCS(=O)(=O)N(Cc3ccc(-c4cccc(CO)c4)cc3)C(CC(C)C)C2=O)nn1 (configuration not stated),"inconclusive: 0.56 µM [inhibitor, full curve]"
17,O=C1C2C3C=CC(C4CC34)C2C(=O)N1Cc1ccco1 (configuration not stated),inactive
18,COc1ccccc1N1C(=O)CC(Nc2ccc(N3CCOCC3)cc2)C1=O (configuration not stated),inactive
19,CC(=O)Nc1ccc(C(=O)OCC(=O)NC(=O)NC(C)(C)C)cc1,inactive
20,CC(C)(C)c1ccc(-c2nc(C=O)c3ccccn23)cc1,"inconclusive: 17.8 µM [inhibitor, single point]"
21,COc1cc(C(=O)NCC(c2ccco2)N(C)C)cc(OC)c1OC (configuration not stated),inactive
22,COc1ccc(CN(C)C(=O)c2cc(-c3ccc(C)cc3C)nc3ccccc23)c(OC)c1OC,"inconclusive: 1 µM [inhibitor, full curve, poor fit]"
23,COc1ccc(CN2C(=O)C(NC(=O)c3ccc(C)cc3)(C(F)(F)F)N=C2c2ccccc2)cc1 (configuration not stated),inactive
24,CCOC(=O)c1ccccc1NC(=O)CN(c1ccccc1OC)S(=O)(=O)c1ccc(C)cc1,"inconclusive: 20 µM [inhibitor, partial curve, poor fit]"
